Laboratory results published in paper doi:10.1101/2024.12.13.628418.
These are yes or no findings as the source states them, for the method shown. In cells and extracts the contact can be indirect. These calls come from enrichment with a bait or labelling near it, and not all partners need be listed. For part of these data: No binding means not detected with the bait. For part of these data: Tags and fused reporters may be left off the sequences shown.

Protein sequences, listed by entry. Tags and fused reporters are not part of them. Lines headed by an entry give the natural chain unless they say otherwise; changes in a name come on top.
UniProt A0A8I6XT81: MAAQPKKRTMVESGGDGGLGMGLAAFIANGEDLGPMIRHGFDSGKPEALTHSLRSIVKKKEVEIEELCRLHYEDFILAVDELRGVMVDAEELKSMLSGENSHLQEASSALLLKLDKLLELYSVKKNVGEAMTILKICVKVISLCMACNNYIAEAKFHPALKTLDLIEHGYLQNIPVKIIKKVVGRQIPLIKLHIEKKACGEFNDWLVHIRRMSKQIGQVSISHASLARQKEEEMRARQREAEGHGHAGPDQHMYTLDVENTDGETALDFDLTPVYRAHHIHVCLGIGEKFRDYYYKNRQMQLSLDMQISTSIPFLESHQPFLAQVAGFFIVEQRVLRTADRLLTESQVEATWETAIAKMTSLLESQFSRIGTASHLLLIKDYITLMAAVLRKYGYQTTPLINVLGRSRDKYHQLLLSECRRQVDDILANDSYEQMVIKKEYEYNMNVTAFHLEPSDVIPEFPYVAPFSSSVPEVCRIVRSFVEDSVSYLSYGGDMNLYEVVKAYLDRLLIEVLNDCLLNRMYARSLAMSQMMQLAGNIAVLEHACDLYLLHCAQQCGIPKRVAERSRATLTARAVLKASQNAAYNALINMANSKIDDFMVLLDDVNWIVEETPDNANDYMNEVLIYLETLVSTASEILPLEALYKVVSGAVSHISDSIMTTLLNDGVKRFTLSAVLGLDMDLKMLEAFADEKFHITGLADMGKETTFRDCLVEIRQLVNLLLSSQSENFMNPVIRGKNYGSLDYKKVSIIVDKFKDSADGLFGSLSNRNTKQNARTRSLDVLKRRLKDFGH
UniProt A0A8I6YXG1: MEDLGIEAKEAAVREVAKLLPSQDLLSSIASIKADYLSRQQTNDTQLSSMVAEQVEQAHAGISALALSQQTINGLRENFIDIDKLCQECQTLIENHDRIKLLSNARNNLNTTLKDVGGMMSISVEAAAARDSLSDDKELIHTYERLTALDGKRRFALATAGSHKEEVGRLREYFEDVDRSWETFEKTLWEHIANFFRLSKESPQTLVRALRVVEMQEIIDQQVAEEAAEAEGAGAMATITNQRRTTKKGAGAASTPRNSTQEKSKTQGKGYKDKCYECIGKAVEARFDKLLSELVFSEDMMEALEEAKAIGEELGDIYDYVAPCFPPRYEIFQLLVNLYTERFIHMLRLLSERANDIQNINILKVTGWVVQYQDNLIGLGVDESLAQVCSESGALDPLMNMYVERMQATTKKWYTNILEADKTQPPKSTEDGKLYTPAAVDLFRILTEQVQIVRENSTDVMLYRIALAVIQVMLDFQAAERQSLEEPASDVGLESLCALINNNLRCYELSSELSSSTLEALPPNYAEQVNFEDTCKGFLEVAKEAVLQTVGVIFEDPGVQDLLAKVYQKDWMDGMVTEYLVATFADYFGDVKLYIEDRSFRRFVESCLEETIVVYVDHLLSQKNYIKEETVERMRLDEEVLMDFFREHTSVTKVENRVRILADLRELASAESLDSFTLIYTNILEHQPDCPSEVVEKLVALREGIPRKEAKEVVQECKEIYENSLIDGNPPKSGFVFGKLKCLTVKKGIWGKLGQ
UniProt A0A8I6X584: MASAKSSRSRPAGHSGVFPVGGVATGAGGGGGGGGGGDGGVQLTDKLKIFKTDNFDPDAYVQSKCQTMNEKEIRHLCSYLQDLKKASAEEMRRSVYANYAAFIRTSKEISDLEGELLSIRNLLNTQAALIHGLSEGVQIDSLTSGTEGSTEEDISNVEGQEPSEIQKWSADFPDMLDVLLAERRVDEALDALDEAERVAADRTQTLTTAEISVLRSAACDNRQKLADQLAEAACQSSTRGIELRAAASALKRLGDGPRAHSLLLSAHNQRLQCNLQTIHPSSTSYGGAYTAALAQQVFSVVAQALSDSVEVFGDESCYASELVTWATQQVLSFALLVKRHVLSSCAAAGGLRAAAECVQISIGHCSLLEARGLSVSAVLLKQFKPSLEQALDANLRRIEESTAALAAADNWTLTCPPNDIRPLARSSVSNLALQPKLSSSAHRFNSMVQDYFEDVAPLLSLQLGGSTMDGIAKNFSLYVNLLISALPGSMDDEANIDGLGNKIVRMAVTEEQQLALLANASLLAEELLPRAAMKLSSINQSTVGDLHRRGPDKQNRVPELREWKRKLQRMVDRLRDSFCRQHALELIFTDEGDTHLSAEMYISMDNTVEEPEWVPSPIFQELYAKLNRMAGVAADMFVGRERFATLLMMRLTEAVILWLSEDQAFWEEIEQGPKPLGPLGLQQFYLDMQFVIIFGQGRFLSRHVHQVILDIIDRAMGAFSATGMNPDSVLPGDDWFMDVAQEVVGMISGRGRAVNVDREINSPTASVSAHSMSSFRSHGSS
UniProt A0A8I7B8K2: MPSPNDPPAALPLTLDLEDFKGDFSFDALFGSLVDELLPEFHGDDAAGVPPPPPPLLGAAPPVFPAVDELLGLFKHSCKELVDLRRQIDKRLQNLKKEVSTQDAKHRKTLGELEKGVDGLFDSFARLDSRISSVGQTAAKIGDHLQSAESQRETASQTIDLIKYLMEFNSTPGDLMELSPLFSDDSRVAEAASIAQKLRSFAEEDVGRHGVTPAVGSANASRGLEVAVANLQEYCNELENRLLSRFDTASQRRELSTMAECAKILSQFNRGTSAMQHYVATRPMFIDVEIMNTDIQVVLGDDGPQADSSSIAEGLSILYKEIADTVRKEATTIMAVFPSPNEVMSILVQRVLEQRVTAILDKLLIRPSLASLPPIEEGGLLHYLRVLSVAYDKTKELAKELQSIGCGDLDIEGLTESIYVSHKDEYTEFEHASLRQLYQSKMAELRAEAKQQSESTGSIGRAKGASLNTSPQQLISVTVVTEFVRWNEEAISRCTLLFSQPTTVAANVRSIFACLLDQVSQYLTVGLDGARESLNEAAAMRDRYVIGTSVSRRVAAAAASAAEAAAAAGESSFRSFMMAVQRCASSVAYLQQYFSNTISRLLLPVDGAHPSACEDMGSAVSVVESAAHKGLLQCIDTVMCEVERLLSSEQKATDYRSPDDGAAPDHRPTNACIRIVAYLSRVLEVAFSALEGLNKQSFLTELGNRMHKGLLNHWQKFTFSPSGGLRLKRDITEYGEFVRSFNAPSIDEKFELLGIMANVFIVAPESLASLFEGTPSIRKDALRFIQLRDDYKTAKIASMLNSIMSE
UniProt A0A8I6XUP7: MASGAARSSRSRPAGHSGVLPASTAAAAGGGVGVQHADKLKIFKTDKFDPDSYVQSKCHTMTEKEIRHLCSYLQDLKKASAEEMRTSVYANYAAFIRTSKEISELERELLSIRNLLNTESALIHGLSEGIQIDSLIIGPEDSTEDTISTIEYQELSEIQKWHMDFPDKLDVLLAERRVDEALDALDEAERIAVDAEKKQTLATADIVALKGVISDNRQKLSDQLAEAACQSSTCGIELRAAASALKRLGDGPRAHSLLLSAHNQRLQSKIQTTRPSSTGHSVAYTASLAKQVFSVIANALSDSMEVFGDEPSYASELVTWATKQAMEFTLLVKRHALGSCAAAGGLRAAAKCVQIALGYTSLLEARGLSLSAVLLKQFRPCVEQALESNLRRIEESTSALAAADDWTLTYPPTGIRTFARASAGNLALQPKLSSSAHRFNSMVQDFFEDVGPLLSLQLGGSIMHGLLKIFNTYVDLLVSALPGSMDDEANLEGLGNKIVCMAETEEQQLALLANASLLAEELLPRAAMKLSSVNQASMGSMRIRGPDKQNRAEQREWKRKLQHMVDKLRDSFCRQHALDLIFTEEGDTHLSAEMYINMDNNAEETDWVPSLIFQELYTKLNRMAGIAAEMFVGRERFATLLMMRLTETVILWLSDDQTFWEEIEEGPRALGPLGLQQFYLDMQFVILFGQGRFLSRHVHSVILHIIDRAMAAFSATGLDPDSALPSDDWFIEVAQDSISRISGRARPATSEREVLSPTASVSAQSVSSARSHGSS
UniProt A0A8I6XA15: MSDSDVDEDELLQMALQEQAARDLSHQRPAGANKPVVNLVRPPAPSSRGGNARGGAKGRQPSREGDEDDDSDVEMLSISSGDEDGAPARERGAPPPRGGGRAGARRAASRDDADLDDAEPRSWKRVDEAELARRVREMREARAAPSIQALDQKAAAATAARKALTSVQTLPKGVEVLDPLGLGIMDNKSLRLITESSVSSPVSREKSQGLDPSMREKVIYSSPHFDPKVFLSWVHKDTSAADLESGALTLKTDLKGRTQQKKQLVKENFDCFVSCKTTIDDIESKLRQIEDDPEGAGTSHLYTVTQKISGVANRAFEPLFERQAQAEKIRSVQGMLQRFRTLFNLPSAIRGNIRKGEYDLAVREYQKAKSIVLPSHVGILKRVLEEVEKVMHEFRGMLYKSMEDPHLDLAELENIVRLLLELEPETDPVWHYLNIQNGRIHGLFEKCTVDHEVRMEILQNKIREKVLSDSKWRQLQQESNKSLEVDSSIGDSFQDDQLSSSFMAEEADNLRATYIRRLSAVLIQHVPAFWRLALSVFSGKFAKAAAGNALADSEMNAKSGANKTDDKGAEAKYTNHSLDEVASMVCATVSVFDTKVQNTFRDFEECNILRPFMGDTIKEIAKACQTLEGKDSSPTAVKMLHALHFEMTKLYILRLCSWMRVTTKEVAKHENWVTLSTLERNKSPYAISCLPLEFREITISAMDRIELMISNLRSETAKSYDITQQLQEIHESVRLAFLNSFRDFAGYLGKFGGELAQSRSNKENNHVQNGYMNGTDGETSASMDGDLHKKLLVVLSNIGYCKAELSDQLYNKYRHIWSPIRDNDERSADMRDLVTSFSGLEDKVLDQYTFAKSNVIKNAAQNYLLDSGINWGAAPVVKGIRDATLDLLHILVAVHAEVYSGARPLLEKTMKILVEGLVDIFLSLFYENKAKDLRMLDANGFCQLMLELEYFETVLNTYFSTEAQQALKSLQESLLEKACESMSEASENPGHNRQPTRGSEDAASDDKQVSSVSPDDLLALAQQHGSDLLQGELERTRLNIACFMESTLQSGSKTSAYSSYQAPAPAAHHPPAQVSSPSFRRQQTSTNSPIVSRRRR
UniProt F2DPA5: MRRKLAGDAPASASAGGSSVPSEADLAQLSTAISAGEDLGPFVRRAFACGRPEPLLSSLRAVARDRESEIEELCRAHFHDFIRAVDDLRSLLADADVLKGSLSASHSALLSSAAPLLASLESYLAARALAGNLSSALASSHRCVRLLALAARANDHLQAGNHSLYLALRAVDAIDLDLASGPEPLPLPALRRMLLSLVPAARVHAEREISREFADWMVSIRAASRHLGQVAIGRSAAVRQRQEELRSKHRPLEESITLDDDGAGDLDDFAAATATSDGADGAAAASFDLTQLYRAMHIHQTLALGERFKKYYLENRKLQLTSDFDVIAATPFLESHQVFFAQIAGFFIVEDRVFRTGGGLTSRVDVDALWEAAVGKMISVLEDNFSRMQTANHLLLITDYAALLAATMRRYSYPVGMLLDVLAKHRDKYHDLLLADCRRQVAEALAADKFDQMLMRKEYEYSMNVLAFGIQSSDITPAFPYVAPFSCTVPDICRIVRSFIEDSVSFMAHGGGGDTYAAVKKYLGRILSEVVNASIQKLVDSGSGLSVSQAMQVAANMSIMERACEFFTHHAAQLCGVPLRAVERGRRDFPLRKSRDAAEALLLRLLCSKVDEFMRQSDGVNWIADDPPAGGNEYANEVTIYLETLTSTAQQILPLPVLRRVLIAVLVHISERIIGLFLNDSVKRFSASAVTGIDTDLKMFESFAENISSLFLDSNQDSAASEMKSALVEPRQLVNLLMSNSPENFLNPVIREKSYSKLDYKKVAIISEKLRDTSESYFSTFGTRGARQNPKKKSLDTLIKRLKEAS
UniProt M0Z256: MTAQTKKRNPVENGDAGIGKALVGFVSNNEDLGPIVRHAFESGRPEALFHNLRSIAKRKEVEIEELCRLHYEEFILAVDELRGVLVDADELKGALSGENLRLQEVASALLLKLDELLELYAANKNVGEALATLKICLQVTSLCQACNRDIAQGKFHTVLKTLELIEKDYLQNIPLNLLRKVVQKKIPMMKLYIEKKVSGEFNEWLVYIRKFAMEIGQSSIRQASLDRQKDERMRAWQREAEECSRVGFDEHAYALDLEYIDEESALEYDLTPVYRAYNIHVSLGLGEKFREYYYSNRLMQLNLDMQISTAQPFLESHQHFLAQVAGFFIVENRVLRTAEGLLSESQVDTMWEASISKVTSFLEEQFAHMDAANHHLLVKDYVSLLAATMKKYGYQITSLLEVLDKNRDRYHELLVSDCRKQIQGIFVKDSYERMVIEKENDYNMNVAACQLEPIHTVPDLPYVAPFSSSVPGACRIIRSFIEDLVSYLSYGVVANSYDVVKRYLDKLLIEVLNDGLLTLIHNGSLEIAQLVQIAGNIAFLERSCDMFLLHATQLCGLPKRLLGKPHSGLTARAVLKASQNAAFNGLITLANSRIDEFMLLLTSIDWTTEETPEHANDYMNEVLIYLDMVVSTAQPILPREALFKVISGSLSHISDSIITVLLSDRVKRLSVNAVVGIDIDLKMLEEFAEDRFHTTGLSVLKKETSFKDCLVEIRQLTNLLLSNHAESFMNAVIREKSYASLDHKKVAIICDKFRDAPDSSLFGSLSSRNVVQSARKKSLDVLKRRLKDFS

What was measured:
Test in all cases: affinity purification with mass spectrometry
[1] = target: 3×FLAG-HvEXO70A1 (stable transgenic barley) (barley (Hordeum vulgare))
[2] = target: 3×FLAG-HvEXO70FX12 (stable transgenic barley) (barley (Hordeum vulgare))
[3] = target: T1, AtLTI6B-3×FLAG (transiently expressed in N. benthamiana) (A. thaliana) (UniProt Q9ZNS6)
T1 sequence: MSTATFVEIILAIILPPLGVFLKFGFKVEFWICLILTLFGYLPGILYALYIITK

[4] = target: T2, 3×FLAG-AtEXO70A1 (transiently expressed in N. benthamiana) (A. thaliana) (UniProt Q9LZD3)
T2 sequence: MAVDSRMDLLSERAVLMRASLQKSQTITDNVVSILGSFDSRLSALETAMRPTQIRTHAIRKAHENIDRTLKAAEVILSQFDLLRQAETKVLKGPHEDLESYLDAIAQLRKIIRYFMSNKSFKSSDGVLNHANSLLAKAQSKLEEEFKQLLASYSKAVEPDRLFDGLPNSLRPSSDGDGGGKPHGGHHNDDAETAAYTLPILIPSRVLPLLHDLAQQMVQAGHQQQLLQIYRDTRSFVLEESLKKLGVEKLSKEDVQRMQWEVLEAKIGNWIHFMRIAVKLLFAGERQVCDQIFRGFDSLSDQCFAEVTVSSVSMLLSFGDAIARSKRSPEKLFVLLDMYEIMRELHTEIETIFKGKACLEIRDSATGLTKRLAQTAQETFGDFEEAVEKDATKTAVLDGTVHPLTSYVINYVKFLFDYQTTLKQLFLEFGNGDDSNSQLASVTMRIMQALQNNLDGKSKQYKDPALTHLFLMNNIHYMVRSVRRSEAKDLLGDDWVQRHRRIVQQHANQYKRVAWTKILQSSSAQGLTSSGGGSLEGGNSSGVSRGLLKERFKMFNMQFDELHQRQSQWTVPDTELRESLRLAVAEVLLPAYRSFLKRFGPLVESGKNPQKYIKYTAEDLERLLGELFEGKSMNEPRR

Substance | binding [1] | binding [2] | binding [3] | binding [4]
HvSEC15A-1 (from UniProt A0A8I6XT81) | binds | no binding | – | –
HvSEC6 (from UniProt A0A8I6YXG1) | binds | no binding | – | –
HvEXO84B-2 (from UniProt A0A8I6X584) | binds | no binding | – | –
NbEXO84B (N. benthamiana (endogenous in leaves)) | – | – | no binding | binds
NbSEC15B (N. benthamiana (endogenous in leaves)) | – | – | no binding | binds
HvSEC8 (from UniProt A0A8I6ZAC4) | binds | no binding | – | –
HvSEC10 (from UniProt A0A8I7B8K2) | binds | no binding | – | –
HvEXO84B-1 (from UniProt A0A8I6XUP7) | binds | no binding | – | –
HvSEC5B (from UniProt A0A8I6XA15) | binds | no binding | – | –
NbSEC10 (N. benthamiana (endogenous in leaves)) | – | – | no binding | binds
HvSEC15B (from UniProt F2DPA5) | binds | no binding | – | –
HvSEC15A-2 (from UniProt M0Z256) | binds | no binding | – | –
